# Measured values: the supplement of paper PMC10849652
# By UniProt entry, the sequences of proteins in these tests, tags left out. Where a name states a change or a piece, a line headed by the entry shows the natural chain unless it says otherwise.
# UniProt Q9BWK5: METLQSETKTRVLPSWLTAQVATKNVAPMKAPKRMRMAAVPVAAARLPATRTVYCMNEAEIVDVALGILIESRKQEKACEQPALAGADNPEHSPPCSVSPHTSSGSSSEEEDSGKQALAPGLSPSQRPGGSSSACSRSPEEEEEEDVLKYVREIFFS
# UniProt O60931: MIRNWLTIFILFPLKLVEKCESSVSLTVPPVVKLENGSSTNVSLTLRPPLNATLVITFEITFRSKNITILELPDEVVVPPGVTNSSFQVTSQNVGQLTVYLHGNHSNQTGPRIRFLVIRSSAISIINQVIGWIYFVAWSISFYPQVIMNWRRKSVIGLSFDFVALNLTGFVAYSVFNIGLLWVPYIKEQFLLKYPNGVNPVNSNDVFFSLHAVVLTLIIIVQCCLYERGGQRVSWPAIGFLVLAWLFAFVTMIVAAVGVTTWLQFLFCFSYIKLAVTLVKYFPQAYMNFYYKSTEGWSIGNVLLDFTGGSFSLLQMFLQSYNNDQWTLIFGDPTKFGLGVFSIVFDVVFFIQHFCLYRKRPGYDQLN
# UniProt Q6ZWL3: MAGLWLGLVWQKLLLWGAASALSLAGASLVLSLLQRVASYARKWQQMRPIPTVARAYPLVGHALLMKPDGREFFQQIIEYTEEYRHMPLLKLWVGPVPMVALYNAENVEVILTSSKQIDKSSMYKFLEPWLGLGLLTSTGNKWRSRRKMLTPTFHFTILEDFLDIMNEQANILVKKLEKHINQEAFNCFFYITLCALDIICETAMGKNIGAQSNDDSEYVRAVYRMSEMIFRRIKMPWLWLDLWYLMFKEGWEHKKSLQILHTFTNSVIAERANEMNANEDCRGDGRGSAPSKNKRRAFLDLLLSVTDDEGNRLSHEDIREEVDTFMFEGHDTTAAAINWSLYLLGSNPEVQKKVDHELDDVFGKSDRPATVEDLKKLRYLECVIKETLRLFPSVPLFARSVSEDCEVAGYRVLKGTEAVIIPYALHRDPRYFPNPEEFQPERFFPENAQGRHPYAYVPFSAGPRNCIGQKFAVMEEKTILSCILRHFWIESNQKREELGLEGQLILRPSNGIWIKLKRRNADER
# UniProt P25774, whole entry, looked up: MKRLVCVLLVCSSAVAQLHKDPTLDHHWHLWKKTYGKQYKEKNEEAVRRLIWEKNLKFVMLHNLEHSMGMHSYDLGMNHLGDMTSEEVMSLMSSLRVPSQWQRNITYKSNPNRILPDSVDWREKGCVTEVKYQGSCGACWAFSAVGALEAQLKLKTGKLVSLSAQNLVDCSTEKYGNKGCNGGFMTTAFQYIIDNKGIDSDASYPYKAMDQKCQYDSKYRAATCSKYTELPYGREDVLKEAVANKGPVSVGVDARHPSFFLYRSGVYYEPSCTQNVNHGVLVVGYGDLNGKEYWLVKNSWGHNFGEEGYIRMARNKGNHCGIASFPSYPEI
# UniProt Q8WV16: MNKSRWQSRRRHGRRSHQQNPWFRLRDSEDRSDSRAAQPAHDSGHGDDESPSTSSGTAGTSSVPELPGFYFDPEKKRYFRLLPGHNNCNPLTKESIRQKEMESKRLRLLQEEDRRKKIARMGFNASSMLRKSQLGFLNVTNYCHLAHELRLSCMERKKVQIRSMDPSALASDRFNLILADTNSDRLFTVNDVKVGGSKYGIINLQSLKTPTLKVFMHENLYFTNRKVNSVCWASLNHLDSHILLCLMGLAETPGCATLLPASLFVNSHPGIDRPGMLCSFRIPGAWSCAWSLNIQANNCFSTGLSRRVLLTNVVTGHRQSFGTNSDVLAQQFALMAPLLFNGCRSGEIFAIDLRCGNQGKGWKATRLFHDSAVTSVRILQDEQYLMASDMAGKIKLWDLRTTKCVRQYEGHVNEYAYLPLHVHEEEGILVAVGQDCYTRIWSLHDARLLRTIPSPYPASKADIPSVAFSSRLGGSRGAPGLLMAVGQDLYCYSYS
# UniProt Q6VVX0: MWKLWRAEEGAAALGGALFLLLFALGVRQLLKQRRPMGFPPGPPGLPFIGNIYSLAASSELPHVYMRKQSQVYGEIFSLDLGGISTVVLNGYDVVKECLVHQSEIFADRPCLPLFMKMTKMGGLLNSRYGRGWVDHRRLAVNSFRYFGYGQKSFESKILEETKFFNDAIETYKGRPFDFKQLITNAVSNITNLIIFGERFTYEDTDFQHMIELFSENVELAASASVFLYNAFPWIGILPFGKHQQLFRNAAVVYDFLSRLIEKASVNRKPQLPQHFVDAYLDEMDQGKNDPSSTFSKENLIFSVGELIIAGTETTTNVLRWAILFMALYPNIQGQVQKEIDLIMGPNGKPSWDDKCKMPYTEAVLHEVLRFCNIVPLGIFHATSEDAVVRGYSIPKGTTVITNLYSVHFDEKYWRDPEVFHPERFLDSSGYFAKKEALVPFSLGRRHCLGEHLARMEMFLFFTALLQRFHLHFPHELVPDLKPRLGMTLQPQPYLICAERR
# UniProt Q9Y5B0: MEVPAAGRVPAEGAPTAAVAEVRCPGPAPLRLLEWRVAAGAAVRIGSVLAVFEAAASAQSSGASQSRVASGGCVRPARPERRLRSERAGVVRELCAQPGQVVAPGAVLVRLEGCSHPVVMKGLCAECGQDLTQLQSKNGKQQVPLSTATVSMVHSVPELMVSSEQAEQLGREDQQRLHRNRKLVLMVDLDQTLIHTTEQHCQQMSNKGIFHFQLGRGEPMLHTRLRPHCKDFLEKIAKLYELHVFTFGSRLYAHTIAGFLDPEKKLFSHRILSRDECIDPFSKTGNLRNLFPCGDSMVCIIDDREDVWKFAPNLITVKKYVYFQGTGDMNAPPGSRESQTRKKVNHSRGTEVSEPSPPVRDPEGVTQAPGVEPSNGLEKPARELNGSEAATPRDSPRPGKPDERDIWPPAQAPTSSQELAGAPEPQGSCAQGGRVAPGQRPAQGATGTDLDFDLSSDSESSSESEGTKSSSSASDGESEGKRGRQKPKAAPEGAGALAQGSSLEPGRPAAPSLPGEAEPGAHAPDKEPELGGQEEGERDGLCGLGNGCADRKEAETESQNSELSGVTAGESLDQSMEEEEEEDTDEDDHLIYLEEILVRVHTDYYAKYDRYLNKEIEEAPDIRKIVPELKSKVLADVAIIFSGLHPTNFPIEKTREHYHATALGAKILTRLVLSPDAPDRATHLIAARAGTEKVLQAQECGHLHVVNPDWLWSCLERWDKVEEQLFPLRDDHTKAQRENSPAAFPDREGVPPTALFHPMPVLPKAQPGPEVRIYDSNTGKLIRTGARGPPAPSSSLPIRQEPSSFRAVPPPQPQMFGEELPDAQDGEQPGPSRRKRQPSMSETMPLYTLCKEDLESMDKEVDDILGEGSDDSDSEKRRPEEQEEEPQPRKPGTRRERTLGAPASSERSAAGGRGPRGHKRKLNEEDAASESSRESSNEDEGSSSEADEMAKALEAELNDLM
# UniProt Q8N8Z6: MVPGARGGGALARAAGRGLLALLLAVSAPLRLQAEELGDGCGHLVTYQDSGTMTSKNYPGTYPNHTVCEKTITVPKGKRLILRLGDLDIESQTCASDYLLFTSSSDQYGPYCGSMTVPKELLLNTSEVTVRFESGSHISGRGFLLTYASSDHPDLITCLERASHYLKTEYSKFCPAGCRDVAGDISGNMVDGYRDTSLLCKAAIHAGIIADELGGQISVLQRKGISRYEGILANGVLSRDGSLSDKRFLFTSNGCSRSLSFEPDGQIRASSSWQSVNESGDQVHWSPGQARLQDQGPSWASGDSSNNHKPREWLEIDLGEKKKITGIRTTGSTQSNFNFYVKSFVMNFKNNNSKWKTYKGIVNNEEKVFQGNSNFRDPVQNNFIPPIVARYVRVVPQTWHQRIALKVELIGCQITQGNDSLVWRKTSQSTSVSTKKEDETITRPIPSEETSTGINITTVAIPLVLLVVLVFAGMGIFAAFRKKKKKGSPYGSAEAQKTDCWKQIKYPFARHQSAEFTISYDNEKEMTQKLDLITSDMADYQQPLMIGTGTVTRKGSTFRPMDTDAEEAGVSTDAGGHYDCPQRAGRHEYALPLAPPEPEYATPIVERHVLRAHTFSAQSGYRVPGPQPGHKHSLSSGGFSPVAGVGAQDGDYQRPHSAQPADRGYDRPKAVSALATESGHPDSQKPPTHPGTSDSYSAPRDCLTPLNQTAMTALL
# UniProt Q9P0U4, whole entry, looked up: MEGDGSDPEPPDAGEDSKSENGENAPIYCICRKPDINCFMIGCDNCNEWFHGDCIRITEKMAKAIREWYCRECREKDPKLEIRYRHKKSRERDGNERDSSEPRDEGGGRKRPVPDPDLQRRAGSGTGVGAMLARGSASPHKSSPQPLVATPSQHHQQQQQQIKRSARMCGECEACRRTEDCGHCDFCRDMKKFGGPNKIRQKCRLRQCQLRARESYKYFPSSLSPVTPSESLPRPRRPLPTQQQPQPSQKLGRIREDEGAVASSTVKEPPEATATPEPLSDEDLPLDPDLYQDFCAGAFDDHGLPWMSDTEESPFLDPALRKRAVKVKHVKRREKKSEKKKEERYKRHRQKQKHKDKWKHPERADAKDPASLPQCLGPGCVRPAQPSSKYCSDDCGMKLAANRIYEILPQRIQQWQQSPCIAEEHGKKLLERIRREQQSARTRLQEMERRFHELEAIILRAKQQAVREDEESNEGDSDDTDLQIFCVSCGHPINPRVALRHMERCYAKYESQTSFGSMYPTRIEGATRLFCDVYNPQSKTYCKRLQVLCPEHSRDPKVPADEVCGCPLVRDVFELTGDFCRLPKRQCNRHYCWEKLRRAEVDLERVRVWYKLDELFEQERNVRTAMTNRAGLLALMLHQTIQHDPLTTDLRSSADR
# UniProt Q99418: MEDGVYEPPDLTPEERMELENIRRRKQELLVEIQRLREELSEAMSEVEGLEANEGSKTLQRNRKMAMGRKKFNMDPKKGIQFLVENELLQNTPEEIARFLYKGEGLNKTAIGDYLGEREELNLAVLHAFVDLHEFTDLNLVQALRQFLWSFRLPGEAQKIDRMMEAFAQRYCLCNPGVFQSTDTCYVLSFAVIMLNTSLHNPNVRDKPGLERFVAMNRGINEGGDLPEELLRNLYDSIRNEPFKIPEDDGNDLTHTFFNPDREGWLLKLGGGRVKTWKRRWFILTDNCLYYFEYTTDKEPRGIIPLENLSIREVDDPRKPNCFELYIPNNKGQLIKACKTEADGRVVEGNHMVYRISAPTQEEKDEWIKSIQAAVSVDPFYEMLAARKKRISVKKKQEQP
# UniProt Q9HCG8: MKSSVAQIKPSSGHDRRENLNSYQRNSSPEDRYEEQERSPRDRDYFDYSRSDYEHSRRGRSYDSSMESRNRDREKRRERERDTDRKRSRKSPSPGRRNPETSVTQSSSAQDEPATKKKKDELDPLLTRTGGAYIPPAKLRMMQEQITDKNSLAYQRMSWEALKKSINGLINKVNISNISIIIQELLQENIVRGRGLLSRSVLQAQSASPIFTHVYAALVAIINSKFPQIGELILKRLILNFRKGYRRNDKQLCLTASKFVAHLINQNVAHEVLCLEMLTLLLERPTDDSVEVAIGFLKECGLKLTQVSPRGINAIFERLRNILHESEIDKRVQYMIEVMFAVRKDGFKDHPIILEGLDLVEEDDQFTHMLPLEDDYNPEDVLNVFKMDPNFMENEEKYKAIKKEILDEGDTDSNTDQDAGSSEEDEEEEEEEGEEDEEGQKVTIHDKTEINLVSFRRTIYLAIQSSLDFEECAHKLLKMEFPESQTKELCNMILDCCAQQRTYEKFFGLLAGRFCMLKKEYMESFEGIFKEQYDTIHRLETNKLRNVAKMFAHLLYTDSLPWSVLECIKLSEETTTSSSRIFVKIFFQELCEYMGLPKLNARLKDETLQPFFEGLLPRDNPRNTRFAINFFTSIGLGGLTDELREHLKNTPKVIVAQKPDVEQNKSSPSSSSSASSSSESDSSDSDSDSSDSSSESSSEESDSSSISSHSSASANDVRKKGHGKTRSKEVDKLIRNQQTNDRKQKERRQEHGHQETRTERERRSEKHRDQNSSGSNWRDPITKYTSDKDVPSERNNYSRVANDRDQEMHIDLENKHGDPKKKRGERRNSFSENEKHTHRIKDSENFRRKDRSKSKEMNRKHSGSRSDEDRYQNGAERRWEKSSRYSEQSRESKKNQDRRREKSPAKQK
# The list shows a part of the results.
# Compound: CC[C@@H]1C(=O)N(C)c2cnc(Nc3ccc(C(=O)NC4CCN(C)CC4)cc3OC)nc2N1C1CCCC1
# Assay: log2 fold change, soluble protein after heating vs DMSO (PISA); higher = thermal stabilisation; K562 cells, 10 uM, 30 min; active = over 0.2 and 3.5 SD of the protein, either way, in both replicates (recomputed)
# How it was run: (§1)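 K562 cells at 2×10^6 cells/mL were treated with 10 μM compound for 30 min. Aliquots were heated for 3 min across 48°C-58°C, pooled, and extracted in PBS with 0.5% NP-40 at 4°C; soluble protein was the supernatant after 21,000xg for 90 min. Soluble protein was quantified by TMTpro 16plex LC-MS/MS with channel sums equalised, and reported as log2 fold change in thermal stability against DMSO controls, with values from duplicates.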
row,Target,log2 fold change
1,CYREN (UniProt Q9BWK5),inactive: -0.015
2,CTNS isoform 2 (UniProt O60931),inactive: 0.221
3,CYP4V2 (UniProt Q6ZWL3),inactive: -0.086
4,CTSS (UniProt P25774),inactive: -0.027
5,DCAF12 (UniProt Q5T6F0),inactive: -0.132
6,DCAF17 (UniProt Q5H9S7),inactive: 0.039
7,DCAF4 (UniProt Q8WV16),inactive: 0.03
8,CYP2R1 (UniProt Q6VVX0),inactive: 0.211
9,DCUN1D4 isoform 3 (UniProt Q92564),inactive: 0.054
10,CWC25 (UniProt Q9NXE8),inactive: 0.212

# Compound: CC[C@@H]1C(=O)N(C)c2cnc(Nc3ccc(C(=O)N[C@H]4CC[C@H](N5CCN(CC6CC6)CC5)CC4)cc3OC)nc2N1C(C)C [volasertib]
# Assay: as above
# How it was run: as §1
row,Target,log2 fold change
1,CTDP1 (UniProt Q9Y5B0),inactive: -0.255
2,DCBLD1 (UniProt Q8N8Z6),inactive: -0.065
3,DAPK1 isoform 3 (UniProt P53355),inactive: -0.1
4,CUL7 isoform 2 (UniProt Q14999),inactive: -0.278
5,DCP2 (UniProt Q8IU60),inactive: -0.153
6,CXXC1 isoform 2 (UniProt Q9P0U4),inactive: 0.039
7,CYTH2 (UniProt Q99418),inactive: 0.042
8,CYP46A1 (UniProt Q9Y6A2),inactive: 0.114
9,CWC22 (UniProt Q9HCG8),inactive: -0.277
10,CYREN isoform 4 (UniProt Q9BWK5),inactive: 0.186

# At a glance, some entries already given.
row,Target,log2 fold change
7,CYTH2 (UniProt Q99418),inactive: 0.042
8,CYP46A1 (UniProt Q9Y6A2),inactive: 0.114
